Paper PMC10011487
No constants are given. Whether binding was seen depends on the method and setting. Binding calls can cover weak binding; strength is not graded here.

Amino acid sequences for entries named in this document (tags omitted). A change or cut given only in a name is not applied to a line headed by its entry.
UniProt Q9Y6E0: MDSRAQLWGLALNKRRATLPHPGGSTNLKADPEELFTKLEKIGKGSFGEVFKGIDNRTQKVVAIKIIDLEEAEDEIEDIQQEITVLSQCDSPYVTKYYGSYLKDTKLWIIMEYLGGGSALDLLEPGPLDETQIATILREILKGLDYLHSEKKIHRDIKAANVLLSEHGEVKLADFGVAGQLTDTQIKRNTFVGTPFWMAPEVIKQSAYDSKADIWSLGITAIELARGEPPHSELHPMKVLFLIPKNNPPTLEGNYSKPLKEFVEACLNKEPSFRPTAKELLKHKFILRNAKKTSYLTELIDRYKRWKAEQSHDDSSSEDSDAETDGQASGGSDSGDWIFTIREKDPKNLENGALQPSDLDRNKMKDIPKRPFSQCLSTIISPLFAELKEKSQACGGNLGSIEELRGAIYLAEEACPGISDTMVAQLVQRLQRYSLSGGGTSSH
UniProt P40763: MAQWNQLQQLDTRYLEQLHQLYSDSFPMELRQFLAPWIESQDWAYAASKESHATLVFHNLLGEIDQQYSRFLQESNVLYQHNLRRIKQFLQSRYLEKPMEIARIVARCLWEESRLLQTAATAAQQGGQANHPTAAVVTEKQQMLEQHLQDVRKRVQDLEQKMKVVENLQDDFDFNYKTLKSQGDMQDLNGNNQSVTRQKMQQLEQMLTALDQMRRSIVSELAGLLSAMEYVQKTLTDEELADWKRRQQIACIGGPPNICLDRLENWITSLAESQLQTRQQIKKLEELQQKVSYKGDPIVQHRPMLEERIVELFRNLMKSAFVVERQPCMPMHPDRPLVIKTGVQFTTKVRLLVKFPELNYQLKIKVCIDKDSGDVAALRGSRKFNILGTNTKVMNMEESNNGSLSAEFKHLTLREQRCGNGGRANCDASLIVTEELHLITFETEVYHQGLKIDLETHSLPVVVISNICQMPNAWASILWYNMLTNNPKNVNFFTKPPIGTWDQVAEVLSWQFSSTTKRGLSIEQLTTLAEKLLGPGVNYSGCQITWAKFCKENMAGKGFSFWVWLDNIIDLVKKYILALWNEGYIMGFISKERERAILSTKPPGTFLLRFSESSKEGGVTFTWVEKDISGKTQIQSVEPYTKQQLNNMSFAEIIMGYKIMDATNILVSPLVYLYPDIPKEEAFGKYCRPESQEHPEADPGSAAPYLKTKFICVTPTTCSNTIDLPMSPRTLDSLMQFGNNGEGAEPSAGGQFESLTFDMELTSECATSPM

Molecular target: GST-STK24 fusion protein (UniProt Q9Y6E0)
Test: pull-down; purified His-STAT3 co-incubated with purified GST or GST-STK24 over night at 4 °C, then precipitated with Anti-GST Magnetic Beads; both purified

binding: binds
Substance: His-STAT3 fusion protein (from UniProt P40763 1-770)
